Data taken from PubChem BioAssay AID2685 (National Center for Advancing Translational Sciences (NCATS), 2010).
This is one part of the list. These are further read-outs of the screen, such as a control signal, another cell line or another target. No call is given for them. The list favours compounds with an active or inconclusive main result. The note in brackets gives the kind of curve behind each potency; many fits are weak.

Test: qHTS Assay for Lipid Storage Modulators in Drosophila S3 Cells;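 for cell number change: cells counted by Cell Tracker Red CMTPX staining in the red channel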
Settings: BODIPY lipid droplet fluorescence, 18-24 h; for cell number change: measured here: cell count max response, cells fed with added oleic acid
Summary of the method: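 Drosophila S3 cells got compounds at several concentrations plus oleic acid (400 uM solution). Laser-scanning cytometry with 488 nm excitation read lipid droplets at 500-530 nm and cells at 575-640 nm. Percent activity was relative to 20 uM Triacsin C.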

[1] = measured here: lipid fluorescence (Fed channel) AC50, cells fed with added oleic acid
[2] = measured here: cell number channel AC50, cells fed with added oleic acid

## CCOc1cccc(-c2nnc3sc(COc4ccc(Cl)cc4)nn23)c1
  cell number change: -4.33%

## COc1ccc(CCNC(=O)CCn2c(=O)oc3ccccc32)cc1OC
[1]
  AC50: 2.31 µM [falling, partial curve]

## CCOC(=O)C1CCCN(CC(=O)Nc2c(C(=O)OC)[nH]c3ccc(Cl)cc23)C1 (stereo not drawn)
  cell number change: -27.4%
[1]
  AC50: 3.26 µM [rising, partial curve]

## COC(=O)CC1C(=O)NC(C)=C1C(=O)OC (stereo not drawn)
  cell number change: -21.2%
[1]
  AC50: 1.46 µM [falling, full curve]

## O=S(=O)(c1cc(F)ccc1F)N1CCN(c2ccccn2)CC1
  cell number change: 18.2%
[1]
  AC50: 0.58 µM [rising, single point]

## CCOC(=O)c1ccc(NCCOC)c([N+](=O)[O-])c1
  cell number change: 5.46%
[2]
  AC50: 6.51 µM [rising, single point]

## Cc1nn(-c2ccccc2)c(Cl)c1C(=O)NCc1ccccc1F
  cell number change: 12.2%
[1]
  AC50: 29.1 µM [rising, single point]

## CCOC(=O)C1CCN(C(=O)COC(=O)c2ccc(Br)o2)CC1
  cell number change: 2.55%
[1]
  AC50: 0.58 µM [rising, full curve]

## Cc1cccc(NC(=O)CN2C(=O)NC(C)(c3ccc4c(c3)OCO4)C2=O)c1 (stereo not drawn)
  cell number change: 61.9%
[2]
  AC50: 16.4 µM [rising, partial curve]

## COc1ccc(N2CCN(C(=O)COc3cccc4ccccc34)CC2)cc1
  cell number change: 24.3%
[1]
  AC50: 3.26 µM [rising, full curve, poor fit]

## O=C(CN1CCN(c2ccc(O)cc2)CC1)N(C1CC1)C1CCS(=O)(=O)C1 (stereo not drawn)
  cell number change: -2.53%
[1]
  AC50: 0.164 µM [falling, full curve, poor fit]

## COc1ccc(CC(=O)NCc2nnc(SCc3ccc([N+](=O)[O-])cc3)n2C)cc1
  cell number change: 33.8%
[2]
  AC50: 29.1 µM [rising, single point]
[1]
  AC50: 29.1 µM [rising, single point]

## O=C(OCC(=O)N(Cc1ccccc1)C1CCS(=O)(=O)C1)c1cc2c(s1)CCCC2 (stereo not drawn)
  cell number change: -16%
[1]
  AC50: 0.00461 µM [rising, full curve, poor fit]

## O=C(NCC(c1ccco1)N1CCc2ccccc2C1)c1c(F)cccc1F (stereo not drawn)
  cell number change: -5.32%
[1]
  AC50: 0.0082 µM [falling, full curve, poor fit]

## CCOc1cc(/C=C2\CCC/C(=C\c3cc(Cl)c(O)c(OCC)c3)C2=O)cc(Cl)c1O
  cell number change: -33%
[2]
  AC50: 7.31 µM [falling, partial curve, poor fit]
[1]
  AC50: 10.3 µM [falling, partial curve]

## COc1ccccc1NC(=S)NC(=O)/C=C/c1ccco1
  cell number change: -50%
[2]
  AC50: 0.00461 µM [falling, full curve, poor fit]
[1]
  AC50: 5.8 µM [rising, partial curve]
